# Experimental data as given in article doi:10.1101/2022.10.21.513154.
# By UniProt entry, the sequences of proteins in these tests, tags left out. Residues count along the entry.
# UniProt O34558, 2-325: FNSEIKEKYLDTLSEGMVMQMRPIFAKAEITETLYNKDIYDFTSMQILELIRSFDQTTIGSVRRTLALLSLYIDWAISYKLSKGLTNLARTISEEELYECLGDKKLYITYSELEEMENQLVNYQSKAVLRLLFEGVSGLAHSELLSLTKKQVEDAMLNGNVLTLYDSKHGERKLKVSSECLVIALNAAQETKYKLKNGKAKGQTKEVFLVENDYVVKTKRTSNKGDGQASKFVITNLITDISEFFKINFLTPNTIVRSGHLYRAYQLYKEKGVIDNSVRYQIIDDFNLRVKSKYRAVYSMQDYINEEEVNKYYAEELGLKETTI
# No constants are given. Whether binding was seen depends on the method and setting.
# How the values were obtained:
# [1] = biological target: YopR wild type protein (YopR-His6) (SPβ prophage of Bacillus subtilis 168) (UniProt O34558); test: crystal structure
# [2] = biological target: YopR wild type protein (YopR-His6) (SPβ prophage of Bacillus subtilis 168) (UniProt O34558); test: SEC
substance,measurement,setting,value
YopR wild type protein (YopR-His6) (from UniProt O34558 2-325),binding,[1],no binding
same,binding,[2],no binding (tested: 100 µM)
